No constants are given. Whether binding was seen depends on the method and setting. In cells and extracts the contact can be indirect. Some binding calls cover weakened binding; strength is not graded here.
Assays:
[1] = molecular target: HA-PTH1R_(NanoLuc) (human) (UniProt Q03431); experiment: FRET or BRET; BRET in a plate reader, intact HEK293T cells coexpressing NanoLuc-tagged receptor (donor) and mVenus- or YFP-tagged partner (acceptor), with or without RAMP2wt; stimulated with PTH or PTHrP (PTH1R) or isoprenaline (β2AR); 37 °C, FRET buffer with furimazine
[2] = molecular target: HA-PTH1R_(mCitrine) (human) (UniProt Q03431); experiment: FRET or BRET; FRET acceptor photobleaching by confocal microscopy at the membrane of intact HEK293 cells transiently coexpressing mCitrine-tagged acceptor and mTurquoise2-tagged donor; FRET buffer pH 7.4 with 0.1% BSA, room temperature
β2AR_(mCitrine) = β2AR_(mCitrine) (UniProt P07550); experiment: as above

By UniProt entry, the sequences of proteins in these tests, tags left out. Residues count along the entry.
UniProt Q03431, residues 27-593: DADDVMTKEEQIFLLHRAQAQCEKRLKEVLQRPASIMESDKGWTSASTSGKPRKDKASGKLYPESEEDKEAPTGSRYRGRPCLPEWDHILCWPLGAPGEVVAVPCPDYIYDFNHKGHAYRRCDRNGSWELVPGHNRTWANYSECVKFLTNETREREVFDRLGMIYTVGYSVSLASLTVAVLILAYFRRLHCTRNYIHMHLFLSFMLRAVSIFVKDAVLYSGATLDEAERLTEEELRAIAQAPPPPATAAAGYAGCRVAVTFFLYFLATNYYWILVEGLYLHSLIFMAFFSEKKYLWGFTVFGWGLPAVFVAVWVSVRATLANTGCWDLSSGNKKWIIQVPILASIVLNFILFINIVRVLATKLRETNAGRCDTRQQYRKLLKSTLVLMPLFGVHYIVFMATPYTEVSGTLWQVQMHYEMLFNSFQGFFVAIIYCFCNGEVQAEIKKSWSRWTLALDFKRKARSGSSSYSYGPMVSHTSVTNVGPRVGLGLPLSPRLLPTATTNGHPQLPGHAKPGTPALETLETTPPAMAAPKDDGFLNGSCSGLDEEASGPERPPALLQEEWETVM
UniProt P32121: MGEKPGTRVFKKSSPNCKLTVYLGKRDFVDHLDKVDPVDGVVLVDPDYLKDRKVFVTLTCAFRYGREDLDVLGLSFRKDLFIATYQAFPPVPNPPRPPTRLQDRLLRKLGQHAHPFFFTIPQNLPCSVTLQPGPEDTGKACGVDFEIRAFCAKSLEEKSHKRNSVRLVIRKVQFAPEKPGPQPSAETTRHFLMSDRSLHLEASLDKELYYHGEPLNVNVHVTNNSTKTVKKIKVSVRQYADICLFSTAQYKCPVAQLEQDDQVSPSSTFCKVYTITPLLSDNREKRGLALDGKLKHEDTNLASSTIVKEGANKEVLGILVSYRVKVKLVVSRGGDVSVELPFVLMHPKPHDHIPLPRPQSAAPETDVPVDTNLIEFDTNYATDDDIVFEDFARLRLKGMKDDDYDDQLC
UniProt O60895, residues 43-175: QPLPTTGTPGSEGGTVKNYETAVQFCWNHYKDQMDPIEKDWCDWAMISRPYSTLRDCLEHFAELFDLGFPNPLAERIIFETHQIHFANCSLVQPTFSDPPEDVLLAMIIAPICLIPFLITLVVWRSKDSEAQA

binding [1] | binding [2] | binding (β2AR_(mCitrine)) | Substance
binds |  |  | β-arrestin2_(mVenus) (from UniProt P32121 1-409)
 | binds | no binding | RAMP2mT2 (from UniProt O60895 43-175)
